Taken from: PubChem BioAssay AID1259308 (NCATS, 2017)
This is a random part of about 59,000 deposited reagents. Of all reagents, about 1,510 (2.6%) are marked active. 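Calls use total luciferase alone and ignore viability, so some active siRNAs may act by altering cell number.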 Reagents against one gene are numbered here.

- Screen: 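Knock-downs that increase output of a recombinant reporter protein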 (primary screen)
- Cell system: human HEK293 embryonic kidney cells stably expressing firefly luciferase (HEK-CMV-Luc2-Hygro)
- Knock-down reagent: single siRNA against human genes, 0.8 pmol siRNA per well
- Timing: 72 h
- Detection: 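Luciferase light (ONE-Glo) measured on one replicate plate set and viability (CellTiter-Glo) on the other, scaled to a negative control siRNA, with robust z-scores and luciferase per cell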
- Direction: total luciferase, z-score and total luciferase, % of control: higher = more reporter protein produced; luciferase per cell, z-score: higher = more reporter output per viable cell; viable cells, % of control: higher = more viable cells
- Hit rule: 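An siRNA counts as active if its total luciferase robust z-score exceeds 3; genes with two or more such siRNAs out of three were retested with fresh siRNAs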
- Meaning of the calls: active = raised luciferase; inactive = no rise

no.	target gene	siRNA no.	total luciferase, z-score	total luciferase, % of control	luciferase per cell, z-score	viable cells, % of control	call
1	SLC16A10 (GeneID 117247)	1	-0.0611	80.7	-0.856	113	inactive
2	SLC16A10 (GeneID 117247)	2	0.546	92.7	0.0285	103	inactive
3	SLC16A10 (GeneID 117247)	3	1.22	106	0.608	101	inactive
4	POMT2 (GeneID 29954)	1	-0.156	78.8	0.0626	86.6	inactive
5	POMT2 (GeneID 29954)	2	-0.623	69.5	-0.187	81.6	inactive
6	POMT2 (GeneID 29954)	3	-0.498	72	-0.406	89.5	inactive
7	ZACN (GeneID 353174)	1	-0.74	67.2	-0.62	88.3	inactive
8	ZACN (GeneID 353174)	2	-1.39	54.3	-2.14	107	inactive
9	ZACN (GeneID 353174)	3	-1.08	60.5	-1.07	89.7	inactive
10	LACTB2 (GeneID 51110)	1	0.969	101	0.432	101	inactive
11	LACTB2 (GeneID 51110)	2	0.749	96.8	-0.307	117	inactive
12	LACTB2 (GeneID 51110)	3	-0.406	73.8	2.44	43.4	inactive
13	RPL23AP25 (GeneID 653789)	1	-0.658	68.8	0.406	69.1	inactive
14	RPL23AP25 (GeneID 653789)	2	0.578	93.4	0.264	97.3	inactive
15	RPL23AP25 (GeneID 653789)	3	0.62	94.2	0.886	83.4	inactive

Continued (2 carried over from the part before).
no.	target gene	siRNA no.	total luciferase, z-score	total luciferase, % of control	luciferase per cell, z-score	viable cells, % of control	call
14	RPL23AP25 (GeneID 653789)	2	0.578	93.4	0.264	97.3	inactive
15	RPL23AP25 (GeneID 653789)	3	0.62	94.2	0.886	83.4	inactive
16	MS4A6A (GeneID 64231)	1	-0.647	69	-0.242	82.2	inactive
17	MS4A6A (GeneID 64231)	2	-0.582	70.3	0.254	73.5	inactive
18	MS4A6A (GeneID 64231)	3	-2.17	38.7	-1.31	61.1	inactive
19	PNOC (GeneID 5368)	1	1.49	112	0.994	96	inactive
20	PNOC (GeneID 5368)	2	0.28	87.4	0.0594	96.2	inactive
21	PNOC (GeneID 5368)	3	1.54	113	0.772	103	inactive
22	MSTO1 (GeneID 55154)	1	-0.13	79.3	0.321	81.4	inactive
23	MSTO1 (GeneID 55154)	2	1.17	105	1.43	80.6	inactive
24	MSTO1 (GeneID 55154)	3	-0.68	68.4	0.314	70.3	inactive
25	IVD (GeneID 3712)	1	0.296	87.8	0.181	93.5	inactive
26	IVD (GeneID 3712)	2	-0.027	81.3	-0.248	97	inactive
27	IVD (GeneID 3712)	3	0.157	85	-0.154	98.9	inactive
28	DXO (GeneID 1797)	1	-0.28	76.3	0.0577	84	inactive
29	DXO (GeneID 1797)	2	-1.25	57.1	-0.956	82.1	inactive
30	DXO (GeneID 1797)	3	1.01	102	0.863	90.9	inactive
31	ZC3H15 (GeneID 55854)	1	1.14	105	2.84	55.4	inactive
32	ZC3H15 (GeneID 55854)	2	-0.0445	81	0.134	87.4	inactive
33	ZC3H15 (GeneID 55854)	3	1.44	111	1.85	76	inactive
34	CLPTM1 (GeneID 1209)	1	-1.14	59.2	-0.22	70.1	inactive
35	CLPTM1 (GeneID 1209)	2	0.412	90.1	-0.0468	102	inactive
36	CLPTM1 (GeneID 1209)	3	0.907	99.9	0.724	92.3	inactive
37	PRR35 (GeneID 146325)	1	-0.378	74.4	-0.359	91.3	inactive
38	PRR35 (GeneID 146325)	2	-0.555	70.8	-0.336	86.5	inactive
39	PRR35 (GeneID 146325)	3	0.801	97.8	1.56	72.5	inactive
